Measurements from PubChem BioAssay AID2685 (National Center for Advancing Translational Sciences (NCATS), 2010).
The other results are listed elsewhere or left out. The main result of the screen is listed elsewhere. These columns were measured beside it and carry no call. Compounds called inactive in the main read-out are mostly missing here. The note in brackets gives the kind of curve behind each potency; many fits are weak.

Test: qHTS Assay for Lipid Storage Modulators in Drosophila S3 Cells;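 on cell number change: cells counted by Cell Tracker Red CMTPX staining in the red channel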
Settings: BODIPY lipid droplet fluorescence, 18-24 h; for cell number change: measured here: cell count max response, cells fed with added oleic acid
In short: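 Drosophila S3 cells got compounds at several concentrations plus oleic acid (400 uM solution). Laser-scanning cytometry with 488 nm excitation read lipid droplets at 500-530 nm and cells at 575-640 nm. Percent activity was relative to 20 uM Triacsin C.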

[1] = measured here: lipid fluorescence (Fed channel) AC50, cells fed with added oleic acid
[2] = measured here: cell number channel AC50, cells fed with added oleic acid

Row | Structure (SMILES) | cell number change [%] | AC50 [1] | AC50 [2]
1 | COc1ccc([C@H]2CC(=O)C=C(c3cccc(F)c3OC)C2)cc1 | -5.54 | 0.517 µM [rising, full curve, poor fit] | 
2 | COc1ccc(-c2cn(-c3ccc(SC(F)F)cc3)c3[n+]2CCC3)cc1OC | 6.12 | 0.00461 µM [rising, full curve, poor fit] | 
3 | CC1=NN(C(=O)c2cccc(Cn3nc(C)c([N+](=O)[O-])c3C)c2)C(O)(C(F)(F)F)C1 (configuration not stated) |  |  | 0.731 µM [rising, single point]
4 | CN(C)/C=C(\C#N)C(=O)N/N=C(\CC(=O)C(F)(F)F)c1ccco1 | 13.6 | 0.731 µM [falling, single point] | 
5 | C=CCn1c(O)c2ccc(C(=O)N=NC(=O)COc3ccc(OC)cc3)cc2c1O | -21 | 29.1 µM [rising, single point] | 
6 | Cc1cc(C)c(C#N)c(SCS(=O)Cc2ccc(Cl)cc2)n1 (configuration not stated) | -12.6 | 0.651 µM [rising, partial curve, poor fit] | 0.517 µM [rising, partial curve, poor fit]
7 | C=CCn1c(=O)c(C(=O)NCc2ccccc2Cl)c(O)c2ccccc21 | 9.97 | 29.1 µM [falling, single point] | 
8 | Cc1nc(NC(=O)c2cccc(-c3cc4ccccc4oc3=O)c2)ccc1Br | -47.7 |  | 20.6 µM [falling, single point]
9 | CC(NC(=O)C1=CC=CN2CCS(=O)(=O)N=C12)c1ccc(Cl)cc1Cl (configuration not stated) | 1.03 | 0.0231 µM [falling, full curve, poor fit] | 
10 | COc1ccc(C2CC(=O)Nc3sc(=N)c4c(N)c(C#N)c(N)nc4c32)cc1OC (configuration not stated) | 0.938 | 20.6 µM [rising, single point] | 
11 | Cc1nc(N2CCN(C(=O)COc3ccccc3)CC2)c2c(C)c(C)sc2n1 | 15.2 | 0.461 µM [rising, partial curve, poor fit] | 
12 | Cc1nc2ccccc2c(=O)n1/N=C/c1ccncc1 |  | 6.51 µM [rising, single point] | 
13 | COc1cccc(C(C(=O)NC2CCCCC2)N(CCN2CCOCC2)C(=O)C2COc3ccccc3O2)c1 (configuration not stated) | -5.97 | 2.59 µM [falling, single point] | 
14 | CC(C)Oc1ccc(C(=O)NC2CCCCC2)cc1 |  | 2.59 µM [rising, partial curve] | 
15 | O=C(CCc1ccc(S(=O)(=O)N2CCOCC2)cc1)N1CCCC1 | 11 | 1.16 µM [falling, single point] | 
16 | O=C(O)CCCNC(=O)/C(=C\c1ccccc1F)NC(=O)c1ccccc1 | -49 |  | 16.4 µM [falling, single point]
17 | CCn1c(C)nnc1SCC(=O)Nc1ccccc1Cl | 2.24 | 1.16 µM [rising, full curve] | 
18 | COc1ccc(N2CCN(C(=O)CCc3nc(-c4ccc(C)cc4)no3)CC2)cc1 | -7.25 | 8.2 µM [falling, partial curve] | 
19 | O=C(NC(=S)Nn1cnc2c(cnn2-c2ccccc2)c1=O)c1ccc(Oc2ccccc2)cc1 | -50.3 | 0.58 µM [rising, single point] | 29.1 µM [falling, single point]
20 | O=C(CNC(=O)c1ccco1)Nc1ccc(N2CCCCCC2)cc1 | 2.94 | 20.6 µM [rising, single point] | 

Record cards (already shown).
`COc1ccc(C2CC(=O)Nc3sc(=N)c4c(N)c(C#N)c(N)nc4c32)cc1OC` (configuration not stated) reads cell number change [%]: 0.938; AC50 [1]: 20.6 µM [rising, single point]
`CN(C)/C=C(\C#N)C(=O)N/N=C(\CC(=O)C(F)(F)F)c1ccco1` reads cell number change [%]: 13.6; AC50 [1]: 0.731 µM [falling, single point]
`Cc1nc(N2CCN(C(=O)COc3ccccc3)CC2)c2c(C)c(C)sc2n1` reads cell number change [%]: 15.2; AC50 [1]: 0.461 µM [rising, partial curve, poor fit]
`Cc1cc(C)c(C#N)c(SCS(=O)Cc2ccc(Cl)cc2)n1` (configuration not stated) reads cell number change [%]: -12.6; AC50 [1]: 0.651 µM [rising, partial curve, poor fit]; AC50 [2]: 0.517 µM [rising, partial curve, poor fit]

Next records follow.

Row | Structure (SMILES) | cell number change [%] | AC50 [1] | AC50 [2]
21 | COC(=O)c1[nH]c2ccc(Cl)cc2c1NC(=O)CN1CCc2cc(OC)c(OC)cc2C1 | -35.4 | 1.84 µM [rising, partial curve] | 
22 | O=C(COC(=O)/C=C/c1ccc(Cl)cc1)NC1CCCC1 | 11.9 | 4.11 µM [falling, single point] | 
23 | CN(Cc1ccccc1NS(=O)(=O)c1ccc(Cl)cc1)C1CCCCC1 | -4.87 |  | 
24 | Cc1cc(C)cc(C(=O)NC(CC(N)=O)c2ccc(N3CCC(Br)CC3)c([N+](=O)[O-])c2)c1 (configuration not stated) | 33.8 | 0.58 µM [rising, single point] | 29.1 µM [rising, single point]
25 | COc1ccc(Cl)cc1NC(=O)COC(C)=O | 23.9 | 5.17 µM [rising, partial curve] | 
26 | Cc1ccc(-n2[nH]c(C)c(/C=C3/C=Nc4ccccc43)c2=O)cc1C | -29.6 | 16.4 µM [falling, single point] | 
27 | CCOc1cc(CN2CCSCC2)ccc1O | -1.66 | 18.4 µM [falling, partial curve] | 
28 | CC(Sc1nncs1)C(=O)NCC(=O)Nc1ccc(F)c(F)c1F (configuration not stated) | 1.97 | 1.3 µM [rising, partial curve] | 2.31 µM [rising, single point]
29 | CC(NC(=O)C1CCN(c2nnc(N3CCCC3=O)s2)CC1)c1ccccc1 (configuration not stated) | -2.31 | 6.51 µM [rising, single point] | 
30 | CCc1nnc(NC(=O)C2CCCN2C(=O)Nc2ccc(Cl)cc2)s1 (configuration not stated) | -25.7 |  | 0.82 µM [falling, partial curve, poor fit]
31 | O=c1c2ccccc2nc2n1CCc1c-2[nH]c2ccccc12 | 1.76 | 1.03 µM [rising, full curve] | 0.731 µM [rising, full curve, poor fit]
32 | Cc1cc(NC(=O)Cc2ccc(Br)cc2)no1 | -11.1 |  | 
33 | Cn1c(SCC(=O)C(C)(C)C)nnc1-c1ccccn1 | 77.9 |  | 16.4 µM [rising, partial curve]
34 | O=C(COc1ccc(S(=O)(=O)N2CCOCC2)cc1)N1CCCCCC1 | -5.58 | 3.55 µM [falling, full curve, poor fit] | 
35 | Cc1c([N+](=O)[O-])cc(S(=O)(=O)Nc2ccc(-c3ccc(N4CCCC4)nn3)cc2)cc1[N+](=O)[O-] | 21.3 |  | 
36 | O=C(Nc1ccc(S(=O)(=O)N2CCOCC2)cc1)c1ccc(Cl)cc1Cl | -21.6 | 20.6 µM [falling, partial curve] | 
37 | Cc1ccc(C)c(-n2nnnc2SCC(=O)NNC(=O)c2ccco2)c1 | 5.49 |  | 
38 | CN1C(=O)C(O)(CC(=O)c2ccccn2)c2cc(Br)ccc21 (configuration not stated) | 21.6 | 6.51 µM [falling, single point] | 
39 | CCOc1ccc(NC(=O)CN(C)C(=O)C2CSC3(C)CCC(=O)N23)cc1OCC (configuration not stated) | -11.4 |  | 
40 | CCN(CCNS(=O)(=O)c1ccc2c(c1)oc(=O)n2C)c1ccccc1 | -1.45 |  | 

Row | Structure (SMILES) | cell number change [%] | AC50 [1] | AC50 [2]
41 | O=C(C1CCCC1)N1CCC(CC2CC(c3ccc(Cl)cc3)=NO2)(C(=O)NCC2CCCCC2)CC1 (configuration not stated) | 51.8 |  | 29.1 µM [rising, single point]
42 | COc1ccc(OC)c(C2CC(=O)c3c([nH]c(C(=O)OCC4CCCO4)c3C)C2)c1 (configuration not stated) | 12.4 | 0.651 µM [rising, partial curve] | 4.61 µM [rising, single point]
43 | COc1ccc(Cl)cc1NS(=O)(=O)c1c(C)[nH]c(=O)[nH]c1=O | 41.5 | 4.11 µM [rising, full curve] | 2.06 µM [rising, full curve]
44 | CCOc1ccc2nc(NCCNC(=S)NCCCN(C)C)c(C#N)cc2c1 | 6.68 | 3.66 µM [falling, single point] | 
45 | COc1ccc(C(=O)NCC(=O)OCC(=O)NC2CCCC2)cc1 | 121 | 6.51 µM [rising, single point] | 5.17 µM [rising, full curve]
46 | Cc1sc2ncnc(SCC(=O)NNC(=O)c3ccco3)c2c1C | 4.64 |  | 
47 | CCOC(=O)c1ccc(NC(=O)N2CCN(c3ccccn3)CC2)cc1 | 3.17 | 0.461 µM [rising, partial curve, poor fit] | 
48 | CC(=O)Nc1cc(Cl)c(N=Cc2ccc(O)cc2O)cc1Cl | -29.4 | 25.9 µM [falling, single point] | 2.06 µM [rising, partial curve]
49 | O=S(=O)(Nc1ccc(N2CCCCC2)cc1)c1ccc(F)cc1 | -37.8 | 29.1 µM [falling, single point] | 32.6 µM [falling, single point]
50 | CCc1cc2c(NC3CCCC3)ncnc2s1 | -2.88 |  | 
51 | O=C(O)C1C2C=CC(C2)C1C(=O)NCc1ccccc1 (configuration not stated) | -46.3 | 8.2 µM [rising, partial curve] | 11.6 µM [falling, partial curve, poor fit]
52 | CCOC(=O)c1ccc(/C=C2/C=C(c3ccccc3)N(c3ccc(Cl)c(C(=O)O)c3)C2=O)cc1 | 5.79 | 20.6 µM [falling, partial curve] | 
53 | O=S(=O)(NCc1ccccn1)c1cc(C(F)(F)F)ccc1Cl | -30.7 | 29.1 µM [falling, single point] | 0.00461 µM [falling, full curve, poor fit]
54 | O=C(COc1ccc(S(=O)(=O)N2CCCC2)cc1Cl)NC1CC1 | 38.9 | 6.51 µM [falling, single point] | 14.6 µM [rising, partial curve]
55 | CCOc1cccc2cc(-c3csc(NC(=O)CCC(=O)NCCCN4CCC(C)CC4)n3)c(=O)oc12 | 28.8 | 0.164 µM [rising, full curve] | 
56 | CCOC(=O)c1c(C)[nH]c(C(=O)COC(=O)CCS(=O)(=O)c2ccc(C)cc2)c1C | -11.2 | 3.26 µM [rising, partial curve, poor fit] | 
57 | N#CC(=C1SC=CS1)c1nc(-c2ccccc2)cs1 | 39.7 |  | 0.0058 µM [rising, full curve, poor fit]
58 | CCN1CCN(C(=O)NC2CCCCC2)CC1 | 5.77 |  | 
